No constants are given. Whether binding was seen depends on the method and setting. In cells and extracts the contact can be indirect. Some entries that bind do so weakly or less than the wild type.
Experiments:
CCR5 [1] = target: CCR5 (UniProt P51681); test: condition: only cells treated with 5P12-RANTES (100 nM, 50 min); co-IP; as a1, but cells treated with 5P12-RANTES (100 nM, 50 min) before crosslinking, lysis and anti-CCR5 immunoprecipitation
CCR5 [2] = target: CCR5 (UniProt P51681); test: co-IP; CHO-CCR5 cells stably expressing arrestin2-GFP treated with RANTES/CCL5 or PSC-RANTES (100 nM, 50 min), washed, crosslinked with 1.25 mM dithiobis[succinimidylpropionate] (60 min), lysed (25 mM Tris, 150 mM NaCl, 1 mM EDTA, 1% NP40, 5% glycerol); CCR5 captured with rat anti-CCR5 mAb on Protein G Mag Sepharose; crosslinks cleaved with 50 mM DTT; blot with anti-GFP or anti-arrestin2
CCR5 [3] = target: CCR5 (UniProt P51681); test: co-IP; as a1, but cells treated with 5P14-RANTES (100 nM, 50 min) before crosslinking, lysis and anti-CCR5 immunoprecipitation

Amino acid sequences for entries named in this document (tags omitted).
UniProt P51681: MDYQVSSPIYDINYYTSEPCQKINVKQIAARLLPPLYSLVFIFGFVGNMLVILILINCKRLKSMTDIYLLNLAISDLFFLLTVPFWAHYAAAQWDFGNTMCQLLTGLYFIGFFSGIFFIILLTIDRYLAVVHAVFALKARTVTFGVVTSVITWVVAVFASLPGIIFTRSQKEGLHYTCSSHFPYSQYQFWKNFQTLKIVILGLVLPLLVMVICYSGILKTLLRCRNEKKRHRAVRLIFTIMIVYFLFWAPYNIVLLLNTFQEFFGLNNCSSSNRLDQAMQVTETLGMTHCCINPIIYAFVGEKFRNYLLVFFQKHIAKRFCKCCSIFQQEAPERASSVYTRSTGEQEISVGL
UniProt P17870: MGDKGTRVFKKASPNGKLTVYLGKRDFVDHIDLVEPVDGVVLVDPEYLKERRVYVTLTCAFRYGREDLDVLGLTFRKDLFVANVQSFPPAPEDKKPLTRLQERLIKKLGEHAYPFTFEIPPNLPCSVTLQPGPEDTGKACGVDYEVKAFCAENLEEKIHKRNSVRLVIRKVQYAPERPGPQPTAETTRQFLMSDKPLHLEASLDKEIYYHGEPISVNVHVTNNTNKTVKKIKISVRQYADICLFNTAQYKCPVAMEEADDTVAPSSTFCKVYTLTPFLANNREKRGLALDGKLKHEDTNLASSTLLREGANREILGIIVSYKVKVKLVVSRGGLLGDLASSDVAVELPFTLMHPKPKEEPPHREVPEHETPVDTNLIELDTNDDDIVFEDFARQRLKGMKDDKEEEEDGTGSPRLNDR

- binding (CCR5 [1]): no binding
- binding (CCR5 [2]): binds
- binding (CCR5 [3]): binds weakly
Substance: arrestin2-GFP (from UniProt P17870 1-418)

— PMC4414452
